Data source: PubChem BioAssay AID1259424 (University of Nebraska Medical Center, 2018)
In all, the deposit lists about 14,000 reagents; shown is a random part of them. 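Higher correlation or smaller distance means closer resemblance to KSR1 loss; control wells, including KSR1 knockdowns, recur on many plates.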 Reagent sequences are not shown. The record does not give: the time to read-out.

- Aim: 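Seek colon cancer survival genes behaving like KSR1, using a six-gene signature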 (primary screen)
- System: human HCT116 colon cancer cells
- Reagent: siRNA pool against human genes, 50 nM
- Measurement: 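Six signature mRNAs by branched-DNA multiplex assay, scaled to two housekeeping genes and non-targeting median, log2; matched to mean KSR1 knockdown profile by Pearson correlation and euclidean distance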
- Scale: mean correlation with KSR1 profile and KSR1 correlation: higher = expression change more like KSR1 knockdown; mean distance from KSR1 profile: higher = expression change less like KSR1 knockdown

gene	mean correlation with KSR1 profile	mean distance from KSR1 profile	KSR1 correlation, replicate 1	KSR1 correlation, replicate 2	KSR1 correlation, replicate 3
TP53INP1 (tumor protein p53 inducible nuclear protein 1)	0.324	1.46	0.361	0.323	0.23
CCT7 (chaperonin containing TCP1 subunit 7)	-0.0861	2.85	-0.0435	0.0127	-0.442
DNAJB4 (DnaJ heat shock protein family (Hsp40) member B4)	-0.456	2.2	-0.393	-0.652	-0.256
POLI (DNA polymerase iota)	0.206	1	0.121	0.135	0.367
PPIP5K2 (diphosphoinositol pentakisphosphate kinase 2)	-0.165	2.01	-0.297	-0.163	-0.219
CDC45 (cell division cycle 45)	0.107	1.98	0.179	0.132	-0.0566
MLLT3 (MLLT3 super elongation complex subunit)	-0.176	1.67	-0.336	-0.308	0.022
CHST15 (carbohydrate sulfotransferase 15)	0.729	2.7	0.594	0.693	0.799
CDC27 (cell division cycle 27)	0.347	1.04	0.337	0.566	-0.0985
MAP2K5 (mitogen-activated protein kinase kinase 5)	0.263	1.67	0.448	0.461	-0.2
ABHD17C (abhydrolase domain containing 17C, depalmitoylase)	-0.472	2.96	-0.723	-0.365	0.12
DPF1 (double PHD fingers 1)	-0.497	1.76	-0.428	-0.514	-0.579
ACTG2 (actin gamma 2, smooth muscle)	-0.166	2.25	-0.0757	-0.225	-0.167
LRP1 (LDL receptor related protein 1)	-0.136	2.84	-0.126	-0.0811	-0.308

Just “mean correlation with KSR1 profile”, for 2 of the entries above:
PPIP5K2 (diphosphoinositol pentakisphosphate kinase 2): -0.165
CDC45 (cell division cycle 45): 0.107

Further records follow.
gene	mean correlation with KSR1 profile	mean distance from KSR1 profile	KSR1 correlation, replicate 1	KSR1 correlation, replicate 2	KSR1 correlation, replicate 3
DAZ2 (deleted in azoospermia 2)	0.22	0.981	0.445	0.382	-0.235
ZDHHC7 (zDHHC palmitoyltransferase 7)	-0.229	1.47	-0.0134	-0.235	-0.394
CPB1 (carboxypeptidase B1)	-0.803	3.82	-0.792	-0.773	-0.533
DNASE1L3 (deoxyribonuclease 1L3)	-0.333	2.72	-0.336	-0.386	-0.338
FMOD (fibromodulin)	-0.26	2.95	-0.0549	-0.103	-0.458
CAMK1D (calcium/calmodulin dependent protein kinase ID)	-0.165	3.82	-0.0816	-0.159	-0.394
PMFBP1 (polyamine modulated factor 1 binding protein 1)	0.516	1.98	0.404	0.487	0.506
SGIP1 (SH3GL interacting endocytic adaptor 1)	0.666	2.48	0.51	0.618	0.66
LCP1 (lymphocyte cytosolic protein 1)	0.483	1.87	0.308	0.351	0.665
ACBD3 (acyl-CoA binding domain containing 3)	0.399	2.92	0.555	0.503	0.343
NRIP2 (nuclear receptor interacting protein 2)	0.674	1.99	0.156	0.612	0.744
CAPN2 (calpain 2)	-0.274	3.66	-0.189	-0.311	-0.43
FLOT1 (flotillin 1)	-0.0768	1.34	-0.256	0.0356	0.0142
UFC1 (ubiquitin-fold modifier conjugating enzyme 1)	0.35	1.24	0.485	0.392	0.273
MFSD1 (major facilitator superfamily domain containing 1)	0.588	0.678	-0.286	0.268	0.373
GTF3C1 (general transcription factor IIIC subunit 1)	0.161	2.49	0.447	-0.0845	0.383
SEMA4A (semaphorin 4A)	-0.535	1.93	-0.273	-0.577	-0.567
ZCRB1 (zinc finger CCHC-type and RNA binding motif containing 1)	0.454	2.08	0.296	0.562	0.373
CLDN4 (claudin 4)	-0.704	1.72	-0.775	-0.671	-0.756
CATSPER1 (cation channel sperm associated 1)	-0.115	1.42	-0.114	-0.375	-0.229
